## Results of single-concentration screens

Chains of the proteins cited; added tags and fusions are not shown. Residues count along the entry.
UniProt A4I591, 1-473: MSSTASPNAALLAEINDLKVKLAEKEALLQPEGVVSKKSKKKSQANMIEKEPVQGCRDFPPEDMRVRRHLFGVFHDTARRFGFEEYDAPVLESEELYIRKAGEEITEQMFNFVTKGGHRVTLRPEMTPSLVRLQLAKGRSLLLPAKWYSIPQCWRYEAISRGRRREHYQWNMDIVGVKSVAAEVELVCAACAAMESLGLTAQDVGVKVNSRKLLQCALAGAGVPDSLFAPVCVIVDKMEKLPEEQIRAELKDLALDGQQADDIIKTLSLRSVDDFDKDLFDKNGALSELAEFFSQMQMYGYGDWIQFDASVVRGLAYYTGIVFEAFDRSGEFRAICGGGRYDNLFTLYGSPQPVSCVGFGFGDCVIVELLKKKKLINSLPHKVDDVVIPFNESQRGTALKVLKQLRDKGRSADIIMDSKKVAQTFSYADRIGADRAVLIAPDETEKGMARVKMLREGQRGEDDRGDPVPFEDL
UniProt I6X8D2, whole entry: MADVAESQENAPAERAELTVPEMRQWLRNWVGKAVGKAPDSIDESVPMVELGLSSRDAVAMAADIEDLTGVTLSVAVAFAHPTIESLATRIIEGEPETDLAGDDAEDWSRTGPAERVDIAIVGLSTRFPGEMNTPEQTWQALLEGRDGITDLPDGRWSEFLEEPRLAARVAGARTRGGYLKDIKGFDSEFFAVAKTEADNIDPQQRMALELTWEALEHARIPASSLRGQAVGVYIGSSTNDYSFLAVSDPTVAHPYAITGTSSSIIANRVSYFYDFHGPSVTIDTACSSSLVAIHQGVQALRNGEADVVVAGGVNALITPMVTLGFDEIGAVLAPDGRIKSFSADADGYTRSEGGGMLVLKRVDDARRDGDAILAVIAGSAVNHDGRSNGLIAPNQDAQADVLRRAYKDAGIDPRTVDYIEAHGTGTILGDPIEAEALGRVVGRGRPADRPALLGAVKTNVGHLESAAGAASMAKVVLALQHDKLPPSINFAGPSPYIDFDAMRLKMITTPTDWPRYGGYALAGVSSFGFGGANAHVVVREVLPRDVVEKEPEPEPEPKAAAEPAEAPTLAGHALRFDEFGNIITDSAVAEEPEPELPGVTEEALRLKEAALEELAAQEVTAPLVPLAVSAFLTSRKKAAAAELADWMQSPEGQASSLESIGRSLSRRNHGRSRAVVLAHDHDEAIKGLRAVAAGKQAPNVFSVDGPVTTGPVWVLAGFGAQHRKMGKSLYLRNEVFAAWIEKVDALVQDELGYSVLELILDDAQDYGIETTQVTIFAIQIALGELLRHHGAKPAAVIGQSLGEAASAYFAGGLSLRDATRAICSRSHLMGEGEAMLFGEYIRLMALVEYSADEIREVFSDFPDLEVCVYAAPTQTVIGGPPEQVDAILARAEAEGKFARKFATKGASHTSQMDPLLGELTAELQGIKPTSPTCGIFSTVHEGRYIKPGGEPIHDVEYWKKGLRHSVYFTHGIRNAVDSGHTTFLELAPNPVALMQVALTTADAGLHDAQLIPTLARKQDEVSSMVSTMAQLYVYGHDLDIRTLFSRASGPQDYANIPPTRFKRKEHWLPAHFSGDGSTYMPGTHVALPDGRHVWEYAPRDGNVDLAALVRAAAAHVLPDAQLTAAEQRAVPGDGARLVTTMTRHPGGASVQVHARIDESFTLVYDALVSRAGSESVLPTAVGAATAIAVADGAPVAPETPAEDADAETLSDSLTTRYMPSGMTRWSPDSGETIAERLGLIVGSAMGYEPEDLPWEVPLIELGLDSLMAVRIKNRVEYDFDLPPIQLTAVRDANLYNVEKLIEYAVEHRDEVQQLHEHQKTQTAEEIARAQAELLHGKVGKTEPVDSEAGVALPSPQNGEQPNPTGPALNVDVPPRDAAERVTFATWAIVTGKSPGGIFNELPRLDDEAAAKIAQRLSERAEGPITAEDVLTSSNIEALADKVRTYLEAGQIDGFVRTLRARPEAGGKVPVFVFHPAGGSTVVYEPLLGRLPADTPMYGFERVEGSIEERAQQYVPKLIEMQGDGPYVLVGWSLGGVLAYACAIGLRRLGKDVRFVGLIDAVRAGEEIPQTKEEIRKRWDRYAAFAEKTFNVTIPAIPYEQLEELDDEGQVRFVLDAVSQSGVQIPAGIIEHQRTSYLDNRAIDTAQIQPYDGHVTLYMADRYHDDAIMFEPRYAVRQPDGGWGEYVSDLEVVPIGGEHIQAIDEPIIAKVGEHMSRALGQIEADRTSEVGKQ

LiHisRS: 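Enzyme assay of histidyl-tRNA synthetase; the read-out is not stated. Target: Histidine-tRNA ligase, Leishmania infantum (UniProt A4I591). Tested at 30 µM. Direction is inferred from retests: higher values go with stronger inhibition. The assay is labelled LdHisRS but filed under L. infantum. Size under these conditions: about 69,000 compounds, about 410 of them at 50% or above in at least one test.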
Pks13 thioesterase: 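Enzyme assay of the thioesterase domain of polyketide synthase 13; the read-out is not stated. Target: Polyketide synthase Pks13, Mycobacterium tuberculosis (UniProt I6X8D2). Tested at 30 µM. Higher reads as stronger inhibition (inferred from which compounds were picked for retests). Of about 67,000 compounds tested this way, about 300 (0.46%) reached 50% or more in at least one test.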
Leishmania in macrophages: 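Cell assay of Leishmania donovani living inside macrophages; the read-out is not stated. Compounds at 30 µM. Higher reads as stronger inhibition (inferred: compounds with an IC50 in retests scored well above the rest). About 69,000 compounds were tested under these conditions; 1.5% (about 1,000) showed 50% or more at least once.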

The filed quantity is “Percent Effect” (%).
The record does not define 0% and 100%; most values in the screen are far below 50% and negative numbers occur (in some assays of this library far below -100).
Compounds were drawn at random from those tested, without regard to their results.
Two or more numbers in one place are separate tests of the same structure; such repeats can differ widely.
A dash means the value is not listed here; it may have been measured.

SMILES	LiHisRS	Pks13 thioesterase	Leishmania in macrophages
OC(COc1ccccc1)CN1CCN(c2nccs2)CC1 (stereo unspecified)	16.96	-10.09	-3.903
O=c1c2cnc(N3CCOCC3)nc2ccn1-c1ccccc1	50	-23.26	15.6
C[C@@H]1CN(C(=O)CCc2cnn(C)c2)C[C@@]1(O)C1CCC1	2.74	-23.66	12.89
CC1CCN(C(=O)c2cnc(CC3CCCN(C)C3)cn2)CC1 (stereo unspecified)	2	-5.24	6.794
[H][C@@]12CCN(C)[C@]1([H])CN(C(=O)COCc1nc3cc(F)ccc3[nH]1)C2	-	-	30.27
Cn1nc2c(cc1=O)CN(CC(=O)Nc1nncs1)CC2	6.061	0.4592	18.94
COc1ccccc1CN1CC(OC)CN(C(=O)OCC(C)C)CC1=O (stereo unspecified)	14.43	15.49	10.12
COc1ccccc1CC(=O)N1CCCC(c2nccn2CC(N)=O)C1 (stereo unspecified)	0.7937	-8.44	-7.544
CCc1ccc(CN2CCCn3c(nc(Cn4ccnc4)cc3=O)C2)o1	15.38	4.05	-
CN(c1cccnn1)C1CCN(C(=O)Cc2c[nH]c3ccccc23)CC1	16.67	2.445	2.653
O=C(O)C(F)(F)F.O=C(O)C(F)(F)F.O=C1COC2(CCN(Cc3cccs3)CC2)CN1c1cccnc1	-	-	17.11
O=C(NCc1ccco1)[C@@]12CCO[C@@H]1CCN(CCN1CCCC1)C2	11.32	-19.33	-
COc1cccc(-c2n[nH]c3c2CN(C(=O)c2oc(C)cc2C)CC3)c1	3.125	-99.3	18.41
CC(C)NC(=O)N1CCC2(CC1)C(=O)NCCN2Cc1ccccc1	9.709	-28.39	-
Cc1occc1C(=O)N1C[C@H](Oc2ccccn2)[C@H]2OCCC[C@H]21	11	-6.988	-
CCN1Cc2nc(OC)c(CNC(=O)CCC3CCCC3)cc2C1=O	26.6	-3.231	2.796
Cc1nc(CN2CCCC(NCc3ccc(C(N)=O)cc3)C2)no1 (stereo unspecified)	12.73	-16.91	23.76
O=C(O)C(F)(F)F.O=C(O)C(F)(F)F.[H][C@]12CCN(C(=O)CCC)CC[C@@]1([H])S(=O)(=O)CCN2Cc1cccnc1	-	-	18.84
Cc1nc(CN2CCCC2C(=O)OCc2ccccc2)oc1C (stereo unspecified)	11.67	-27.8	0.6047
Cc1nnc(SCCNc2cc(C3CC3)ncn2)s1	11.67	-21.11	12.63
Cc1[nH]c2nc(CNc3ccccc3Cl)nn2c(=O)c1C	20.65	-3.745	14.11
Cc1cc(N2CCC(N(C)C(=O)Nc3ccccc3)CC2)nc(C)n1	21.15	-5.866	11.78
CCn1nc2c(cc1=O)CN(CC(=O)Nc1nncs1)CC2	5.769	3.186	16.63
COCCN1C(=O)CC(N2CCN(c3ccc(F)cc3)CC2)C1=O (stereo unspecified)	25.71	-33.54	26.17
COc1coc(C(=O)Nc2ccncc2)cc1=O	14.29	-9.565	22.74
C[S+]([O-])c1nncn1CC(=O)c1cccc(Cl)c1 (stereo unspecified)	20.75	-19.56	2.313
CCc1nnc(C2Cc3ccccc3CN2Cc2cc(C)no2)o1 (stereo unspecified)	12.7	12.72	31.09
O=C(c1cnccn1)N1CCCC2(CCN(Cc3ccsc3)C2)C1 (stereo unspecified)	13.89	-29.97	-
Cc1ccc(N2CCCN(C(=O)c3cccc4c3ccn4C)CC2)nn1	9.917	9.915	36.24
Cc1ccc2c(n1)N(CCN(C)C)CCN(C(=O)c1ccoc1)C2.O=C(O)C(F)(F)F.O=C(O)C(F)(F)F	-	-	14.9
COc1cc(N2CCC(c3nccn3CCCN(C)C)CC2)nc(N)n1	12.94	1.308	16.65
CC(C)Cn1cc(NC(=O)NCC2CCN(c3ccccc3)C2)cn1 (stereo unspecified)	2.857	-4.074	14.25
Cc1ccc(CN2Cc3c(C(=O)N4CCCC4)nn(C)c3C2)s1.O=C(O)C(F)(F)F	-	-	-7.076
CNC(=O)CCNC(=O)c1cc(C)n(-c2cccc(OC)c2)c1C	1.695	-1.091	-2.282
O=C(NCCO)NCC(c1ccccc1)N1CCc2sccc2C1 (stereo unspecified)	14.29	-4.351	-11.91
CCN1CCNC(=O)C12CCN(S(=O)(=O)c1ccc(F)cc1)CC2	11.65	-37.11	-4.409
CCN(CC(=O)NC1(C)CCS(=O)(=O)C1)Cc1ccc(OC)c(F)c1 (stereo unspecified)	10.34	-2.196	31.64
CC(C)c1nccn1C(C)C(=O)NCc1noc(Cc2cccs2)n1 (stereo unspecified)	15.83	-17.24	-40
Cc1cc(CC2COc3ccccc3C2)cnc1N (stereo unspecified)	12.5	-26.41	24.83
Cc1cnn(C2CN(Cc3nc(-c4ccccc4C)no3)C2)c1	8.696	-5.133	-8.562
COc1ccc(CN2CCC3(CCCN(c4ncc(F)cn4)C3)C2)cc1.O=C(O)C(F)(F)F (stereo unspecified)	-	-	15.97
O=C(Nc1ccccc1)[C@H]1CN2CCC1C[C@@H]2Cn1cc(CO)nn1 (stereo partly specified)	11.11	-27.54	10.48
CC1CN(C(=O)C2(c3cccc(F)c3)CCOCC2)CCO1 (stereo unspecified)	24.24	-14.27	18.33
Cc1ccn(-c2ccnc(N3CCSCC3)n2)n1	17.5	-6.94	-17.08
O=C(O)C1(Cc2ccc(F)cc2)CCCN(Cc2ccncc2)C1 (stereo unspecified)	10	-5.058	-6.476
CCN1C[C@H]2[C@@H](C1)N(S(=O)(=O)c1ccccc1F)CC[C@H]2OC	22	-14.06	-
Cc1cc(CNCC2(O)CCOCC2)ccc1Br	19.61	-1.279	15.56
O=C(Nc1nccs1)N1CCCC(N2CCNC2=O)C1 (stereo unspecified)	7.692	-7.036	7.303
O=C(CCn1cccc1)NCc1ccc(CN2CCCCCC2)o1	5.479	-28.39	-0.3657
CC(=O)N1CCN(Cc2ccsc2)CC2(CC(=O)N(C)C2)C1.O=C(O)C(F)(F)F (stereo unspecified)	-	-	9.433
CN1CCN(C2CCN(Cc3noc(-c4ccccc4)n3)CC2)C1=O	2.857	-16.79	9.84
Cc1noc(C[C@@H]2COC[C@H]3CN(S(=O)(=O)C4CC4)C[C@@H]23)n1	12.82	-22.95	-
Cc1occc1C(=O)N1Cc2nccn2CC(CN2CCCC2)C1 (stereo unspecified)	17	-9.728	-
CCCN1CCCn2nc(CNS(=O)(=O)c3cccc(F)c3)cc2C1	15.29	-12.1	27.84
CS(=O)(=O)c1cccc(S(=O)(=O)NC(=O)CC2CCCCC2)c1	23.94	-42.09	9.008
Cc1ccc(S(C)(=O)=O)cc1C(=O)N1CCCC(n2cncn2)C1 (stereo unspecified)	5.128	-15.04	0.02046
O=C(CCc1nccs1)N1CCN(c2ccc(Br)cn2)CC1	0	-12.12	-6.956
Cc1nc(C2CCCN(C(=O)CCCn3cccn3)C2)no1 (stereo unspecified)	-5.479	-15.92	33.86
CCS(=O)(=O)N1CCCC(c2nccn2Cc2ccccn2)C1 (stereo unspecified)	24	-43.94	2.474
c1coc(-c2nc(CN3CCOC(Cn4cccn4)C3)cs2)c1 (stereo unspecified)	6.452	-4.586	5.143
CCOC1Sc2nnc(C)n2N=C1c1ccc(Br)cc1 (stereo unspecified)	33.33	-16.29	33.57
Cc1csc(CN2CCC3(CC2)COC(COc2ccccn2)C3)n1 (stereo unspecified)	15.84	-12.48	36.8
CSc1ccccc1-n1ccnc1-c1cn(C2CCNCC2)nn1	17.74	21.94	-6.736
CCCc1cc(CNC2CCN(c3cc(C(C)C)nc(C)n3)CC2)on1	26.53	5.288	-17.92
CC(=O)N1CCN(C(=O)CNc2c(C)cccc2OC(F)F)CC1	12.82	-33.65	26.8
CO[C@@H]1CCN(S(=O)(=O)c2cn(C)cn2)[C@H]1Cc1cnn(C)c1	16.67	2.982	-
c1ccc(CN2CC[C@H]3[C@H]2CCN3c2ncccn2)nc1	14.04	-34.6	-
CC(C)N(C)C[C@H]1OC[C@@H]2CCN(Cc3cccc(C#N)c3)C[C@@H]21	10	8.97	-
Cc1cc(C)n(CCN(C)c2ccc(-c3nc(C4CC4)no3)cn2)n1	-1.55	0.1558	-49.76
COCC1c2c(cnn2C)CCN1Cc1ccoc1 (stereo unspecified)	9.615	-4.598	-4.418
CCCNC(=O)CSc1nnc2[nH]c(=O)c3c(n12)CCCC3	13.91	-1.953	9.2 and -4.916
COc1ccc(-c2noc(C3CCS(=O)(=O)C3)n2)cc1OC (stereo unspecified)	14.29	2.641	-0.8216
CCn1cc(C(=O)N2CCCC3(CCC(=O)N(CCC(C)C)C3)C2)cn1 (stereo unspecified)	15.62	-20.49	-7.082

The last 5 entries again:

- Cc1cc(C)n(CCN(C)c2ccc(-c3nc(C4CC4)no3)cn2)n1 | LiHisRS: -1.55%; Pks13 thioesterase: 0.1558%; Leishmania in macrophages: -49.76%
- COCC1c2c(cnn2C)CCN1Cc1ccoc1 (stereo unspecified) | LiHisRS: 9.615%; Pks13 thioesterase: -4.598%; Leishmania in macrophages: -4.418%
- CCCNC(=O)CSc1nnc2[nH]c(=O)c3c(n12)CCCC3 | LiHisRS: 13.91%; Pks13 thioesterase: -1.953%; Leishmania in macrophages: 9.2% and -4.916%
- COc1ccc(-c2noc(C3CCS(=O)(=O)C3)n2)cc1OC (stereo unspecified) | LiHisRS: 14.29%; Pks13 thioesterase: 2.641%; Leishmania in macrophages: -0.8216%
- CCn1cc(C(=O)N2CCCC3(CCC(=O)N(CCC(C)C)C3)C2)cn1 (stereo unspecified) | LiHisRS: 15.62%; Pks13 thioesterase: -20.49%; Leishmania in macrophages: -7.082%

From ChEMBL document CHEMBL3988442, “University of Dundee, Small-Polar-MMV Screening Library” (2021).